The source of these data is PMC8000408, “Inhibition of NUPR1–Karyopherin β1 Binding Increases Anticancer Drug Sensitivity” (International Journal of Molecular Sciences, 2021).

Chains of the proteins cited; added tags and fusions are not shown.
UniProt Q14974: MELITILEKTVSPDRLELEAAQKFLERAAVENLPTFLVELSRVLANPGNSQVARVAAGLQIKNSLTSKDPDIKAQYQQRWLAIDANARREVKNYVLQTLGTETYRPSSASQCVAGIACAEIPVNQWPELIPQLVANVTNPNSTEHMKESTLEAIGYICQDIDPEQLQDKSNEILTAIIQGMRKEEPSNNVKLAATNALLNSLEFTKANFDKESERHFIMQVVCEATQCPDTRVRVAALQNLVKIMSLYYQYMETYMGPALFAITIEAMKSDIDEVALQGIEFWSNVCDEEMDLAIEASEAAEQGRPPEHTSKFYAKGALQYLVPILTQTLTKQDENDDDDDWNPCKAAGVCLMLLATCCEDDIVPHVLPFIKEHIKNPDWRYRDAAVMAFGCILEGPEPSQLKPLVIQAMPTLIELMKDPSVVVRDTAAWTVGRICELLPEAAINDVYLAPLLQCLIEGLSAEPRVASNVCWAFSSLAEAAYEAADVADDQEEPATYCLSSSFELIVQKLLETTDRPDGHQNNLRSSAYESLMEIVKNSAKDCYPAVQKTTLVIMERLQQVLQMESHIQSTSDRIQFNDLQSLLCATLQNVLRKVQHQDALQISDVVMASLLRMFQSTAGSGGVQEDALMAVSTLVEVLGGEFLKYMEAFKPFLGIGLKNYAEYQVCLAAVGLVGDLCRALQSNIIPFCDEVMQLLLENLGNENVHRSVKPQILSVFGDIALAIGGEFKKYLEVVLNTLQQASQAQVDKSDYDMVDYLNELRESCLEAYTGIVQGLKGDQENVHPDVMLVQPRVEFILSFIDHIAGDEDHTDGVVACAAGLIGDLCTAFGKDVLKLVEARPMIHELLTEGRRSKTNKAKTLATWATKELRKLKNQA

These are yes or no findings as the source states them, for the method shown. For some assays here: In cells and extracts the contact can be indirect. Some binding calls cover weakened binding; strength is not graded here. For some assays here: Sequences can lack the tags named with a protein.

The target of experiment [1] is T1, GST-NUPR1 (nuclear protein-1) recombinant protein (UniProt O60356).
T1 sequence: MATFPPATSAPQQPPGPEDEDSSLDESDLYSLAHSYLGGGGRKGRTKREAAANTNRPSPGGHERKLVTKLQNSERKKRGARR
The experiment can be described thus: single-molecule pull-down (TIRF microscopy); NUPR1 immobilised on the imaging surface; 5 nM Cy5-labeled KPNB1 or Cy5-labeled KPNA, incubated with various concentrations of ATZ-502 for 30 min (on ice, per the legend); 633-nm excitation, ambient temperature; both purified.

For experiment [2], the target named is KPNB1 (in the immunoprecipitation) (UniProt Q14974). The experiment can be described thus: co-IP; KPNB1 antibody on protein G magnetic beads; KPNB1-NUPR1 complex bound at 4 °C overnight, with ATZ-502 (1 µM) as inhibitor; eluted with RIPA buffer, immunoblot; source of the proteins not stated. Background: In western blotting, separated proteins are transferred to a membrane and probed.

With “Cy5-labeled karyopherin β1 (KPNB1) (from UniProt Q14974 1-876)”, the binding result in experiment [1] is “binds”.

B1: GST-NUPR1 (nuclear protein-1) recombinant protein (natural protein, UniProt O60356 1-82, looked up)
chain: T1 sequence
notes: Nuclear protein-1 (NUPR1, p8/Com-1); Held on the PEG-coated quartz surface through neutravidin and a biotin-conjugated GST-tag antibody; No catalogue number is printed; also called p8; Com-1; source: bought: NOVUS Biologicals (recombinant protein)
As to B1, the binding entry in experiment [2] was “binds”.
